Experimental data reported in the supplement of paper PMC10849652.
The list shows a part of the results.

By UniProt entry, the sequences of proteins in these tests, tags left out. Where a name states a change or a piece, a line headed by the entry shows the natural chain unless it says otherwise.
UniProt Q9Y3A3: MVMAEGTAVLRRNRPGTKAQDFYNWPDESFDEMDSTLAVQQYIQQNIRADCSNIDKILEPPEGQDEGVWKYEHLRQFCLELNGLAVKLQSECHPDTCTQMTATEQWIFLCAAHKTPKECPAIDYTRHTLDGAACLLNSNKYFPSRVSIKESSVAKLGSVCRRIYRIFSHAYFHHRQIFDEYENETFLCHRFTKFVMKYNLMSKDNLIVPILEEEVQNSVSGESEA
UniProt P51948: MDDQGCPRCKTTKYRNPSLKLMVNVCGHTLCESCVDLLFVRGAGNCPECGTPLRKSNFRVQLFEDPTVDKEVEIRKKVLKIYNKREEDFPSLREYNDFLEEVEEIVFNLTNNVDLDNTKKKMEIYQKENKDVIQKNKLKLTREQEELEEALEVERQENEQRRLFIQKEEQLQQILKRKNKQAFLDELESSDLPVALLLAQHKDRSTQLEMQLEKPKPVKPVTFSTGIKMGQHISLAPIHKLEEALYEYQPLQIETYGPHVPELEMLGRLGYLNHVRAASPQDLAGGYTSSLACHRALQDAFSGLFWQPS
UniProt O75352: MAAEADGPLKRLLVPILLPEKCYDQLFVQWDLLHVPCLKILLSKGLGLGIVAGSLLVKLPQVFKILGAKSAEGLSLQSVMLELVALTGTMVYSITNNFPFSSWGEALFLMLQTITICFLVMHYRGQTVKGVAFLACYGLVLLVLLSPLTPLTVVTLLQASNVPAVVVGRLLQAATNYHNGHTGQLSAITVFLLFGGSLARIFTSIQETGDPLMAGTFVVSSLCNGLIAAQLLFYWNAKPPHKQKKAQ
UniProt Q8N4V1: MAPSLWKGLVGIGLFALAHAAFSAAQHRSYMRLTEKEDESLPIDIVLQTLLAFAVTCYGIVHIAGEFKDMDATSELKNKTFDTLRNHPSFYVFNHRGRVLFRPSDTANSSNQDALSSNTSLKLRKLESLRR

Experiments:
Test in all cases: log2 fold change, soluble protein after heating vs DMSO (PISA); higher = thermal stabilisation; K562 cells, 10 uM, 30 min; active = over 0.2 and 3.5 SD of the protein, either way, in both replicates (recomputed)
[1] = compound: Cc1ccc(NC(=O)c2ccc(CN3CC[C@H](N(C)C)C3)c(C(F)(F)F)c2)cc1Nc1nccc(-c2cncnc2)n1 [bafetinib]
Method in brief: (§1)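 For each measurement, 10 μM compound was applied for 30 min to K562 cells at 2×10^6 cells/mL. Aliquots were heated for 3 min across 48°C-58°C, pooled, and extracted in PBS with 0.5% NP-40 at 4°C; the supernatant after 21,000xg for 90 min was soluble protein. This was quantified by TMTpro 16plex LC-MS/MS with channel sums equalised, and thermal stability was reported relative to control samples from duplicates, on a log2 fold-change scale.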

[2] = compound: Cc1cccc(CC(=O)N2CCc3c2ccc(-c2cn(C)c4ncnc(N)c24)c3F)n1
Method in brief: as §1

[3] = compound: Cc1cn(-c2cc(NC(=O)c3ccc(C)c(Nc4nccc(-c5cccnc5)n4)c3)cc(C(F)(F)F)c2)cn1 [nilotinib]
Method in brief: as §1

[4] = compound: Cc1nc(Nc2n[nH]c3c2CN(C(=O)N[C@H](CN(C)C)c2ccccc2)C3(C)C)c2sccc2n1
Method in brief: as §1

[5] = compound: Cc1nc(Nc2ncc(C(=O)Nc3c(C)cccc3Cl)s2)cc(N2CCN(CCO)CC2)n1 [dasatinib]
Method in brief: as §1

[6] = compound: Cc1ncc(-c2ccnc(Nc3ccc(S(C)(=O)=O)cc3)n2)n1C(C)C
Method in brief: as §1

[7] = compound: Cn1cc(-c2ccc3c(c2)CCN3C(=O)Cc2cccc(C(F)(F)F)c2)c2c(N)ncnc21
Method in brief: as §1

[8] = compound: Cn1cc(-c2ccc3nnc(C(F)(F)c4ccc5ncccc5c4)n3n2)cn1
Method in brief: as §1

[9] = compound: Cn1cncc1[C@@](N)(c1ccc(Cl)cc1)c1ccc2c(c1)c(-c1cccc(Cl)c1)cc(=O)n2C [tipifarnib]
Method in brief: as §1

[10] = compound: FC(F)(F)c1ccc(/C=C/c2nc(COc3ccc(CCCCn4ccnn4)cc3)co2)cc1 [mubritinib]
Method in brief: as §1

[11] = compound: NC(=O)Nc1cc(-c2cccc(F)c2)sc1C(=O)N[C@H]1CCCNC1
Method in brief: as §1

[12] = compound: NC(=O)c1cnc(N[C@@H]2CCCC[C@@H]2N)nc1Nc1cccc(-n2nccn2)c1
Method in brief: as §1

[13] = compound: NC1(c2ccc(-c3nc4ccn5c(=O)[nH]nc5c4cc3-c3ccccc3)cc2)CCC1
Method in brief: as §1

[14] = compound: NCC(=O)Nc1ccc(-n2nc(C(F)(F)F)cc2-c2ccc3c(ccc4ccccc43)c2)cc1
Method in brief: as §1

[15] = compound: Nc1ccccc1NC(=O)c1ccc(CNC(=O)OCc2cccnc2)cc1 [entinostat]
Method in brief: as §1

[16] = compound: O=C(CCCCCCC(=O)Nc1ccccc1)NO [vorinostat]
Method in brief: as §1

[17] = compound: O=C(CCCCCCNC(=O)c1cnc(N(c2ccccc2)c2ccccc2Cl)nc1)NO [citarinostat]
Method in brief: as §1

[18] = compound: O=C(O)c1ccc2c(c1)nc(Nc1cccc(Cl)c1)c1ccncc12 [silmitasertib]
Method in brief: as §1

[19] = compound: O=C1NC(=O)C(c2cnc3ccccn23)=C1c1cn2c3c(cc(F)cc13)CN(C(=O)N1CCCCC1)CC2
Method in brief: as §1

[20] = compound: c1cc(OCCN2CCCCC2)cc(-c2n[nH]c3ccc(-c4nnc[nH]4)cc23)c1
Method in brief: as §1

Measured: log2 fold change

MRPL20 (UniProt Q9BYC9)
inactive: [1] 0.135 | [2] 0.105 | [3] -0.022 | [4] 0.172 | [5] -0.071 | [6] -0.007 | [7] -0.074 | [8] -0.041 | [9] 0.074 | [10] 0.025 | [11] -0.005 | [12] 0.061 | [13] 0.046 | [14] 0.115 | [15] -0.011 | [16] 0.011 | [17] -0.017 | [18] 0.003 | [19] -0.023 | [20] -0.075

MOB4 (UniProt Q9Y3A3)
inactive: [1] -0.027 | [2] -0.007 | [3] 0.048 | [4] 0.035 | [5] -0.011 | [6] -0.022 | [7] 0.023 | [8] 0.019 | [9] -0.012 | [10] 0.047 | [11] -0.001 | [12] 0.023 | [13] -0.036 | [14] 0.005 | [15] -0.019 | [16] 0.005 | [17] 0.071 | [18] 0.004 | [19] -0.026 | [20] -0.009

MNAT1 (UniProt P51948)
inactive: [1] -0.072 | [2] 0.011 | [3] -0.033 | [4] 0.023 | [5] -0.002 | [6] -0.031 | [7] 0.018 | [8] 0 | [9] 0.025 | [10] 0.032 | [11] -0.055 | [12] -0.039 | [13] 0.005 | [14] -0.058 | [15] -0.028 | [16] -0.003 | [17] 0.078 | [18] -0.015 | [19] -0.047 | [20] -0.036

MPDU1 (UniProt O75352)
inactive: [1] -0.022 | [2] -0.03 | [3] 0.039 | [4] 0.031 | [5] -0.199 | [6] -0.005 | [7] 0.075 | [8] 0.071 | [9] 0.15 | [10] 0.09 | [11] 0.063 | [12] 0.061 | [13] -0.087 | [14] 0.025 | [15] 0.067 | [16] -0.075 | [17] 0.036 | [18] 0.016 | [19] 0.169 | [20] -0.013

MRPL39 (UniProt Q9NYK5)
inactive: [1] 0.05 | [2] 0.084 | [3] -0.011 | [4] 0.12 | [5] -0.033 | [6] 0.01 | [7] -0.085 | [8] -0.019 | [9] 0.024 | [10] 0.029 | [11] -0.026 | [12] 0.024 | [13] -0.015 | [14] 0.084 | [15] -0.01 | [16] 0.087 | [17] 0.006 | [18] 0.048 | [19] 0.049 | [20] -0.031

MRPL51 (UniProt Q4U2R6)
inactive: [1] 0.234 | [2] -0.078 | [3] -0.161 | [4] 0.113 | [5] 0.018 | [6] 0.017 | [7] -0.062 | [8] -0.076 | [9] 0.112 | [10] 0.015 | [11] 0.003 | [12] -0.047 | [13] 0.085 | [14] 0.088 | [15] -0.045 | [16] 0.003 | [17] -0.025 | [18] -0.005 | [19] -0.008 | [20] -0.17

MMGT1 isoform 2 (UniProt Q8N4V1)
inactive: [1] -0.005 | [2] -0.004 | [3] -0.001 | [4] 0.012 | [5] 0.046 | [6] -0.052 | [7] 0.121 | [8] 0.051 | [9] -0.011 | [10] 0.066 | [11] 0 | [12] 0.017 | [13] -0.063 | [14] -0.029 | [15] 0.056 | [16] 0.095 | [17] 0.017 | [18] 0.049 | [19] -0.098 | [20] -0.041

MRPL47 (UniProt Q9HD33)
inactive: [1] 0.264 | [2] -0.263 | [3] -0.124 | [4] 0.118 | [5] 0.016 | [6] 0.073 | [7] -0.174 | [8] -0.085 | [9] 0.103 | [10] -0.029 | [11] 0.024 | [12] 0.058 | [13] 0.039 | [14] 0.057 | [15] 0.028 | [16] -0.195 | [17] -0.087 | [18] -0.021 | [19] -0.011 | [20] 0.336
